From the supplement of paper PMC6411743
± gives the standard deviation of the averaged measurements. The entries are a selection whose mix differs from that of the whole data set. Most entries show no effect beyond the scatter of the controls.

Protein sequences, listed by entry. Tags and fused reporters are not part of them. Lines headed by an entry give the natural chain unless they say otherwise; changes in a name come on top.
UniProt Q9Y485, whole entry: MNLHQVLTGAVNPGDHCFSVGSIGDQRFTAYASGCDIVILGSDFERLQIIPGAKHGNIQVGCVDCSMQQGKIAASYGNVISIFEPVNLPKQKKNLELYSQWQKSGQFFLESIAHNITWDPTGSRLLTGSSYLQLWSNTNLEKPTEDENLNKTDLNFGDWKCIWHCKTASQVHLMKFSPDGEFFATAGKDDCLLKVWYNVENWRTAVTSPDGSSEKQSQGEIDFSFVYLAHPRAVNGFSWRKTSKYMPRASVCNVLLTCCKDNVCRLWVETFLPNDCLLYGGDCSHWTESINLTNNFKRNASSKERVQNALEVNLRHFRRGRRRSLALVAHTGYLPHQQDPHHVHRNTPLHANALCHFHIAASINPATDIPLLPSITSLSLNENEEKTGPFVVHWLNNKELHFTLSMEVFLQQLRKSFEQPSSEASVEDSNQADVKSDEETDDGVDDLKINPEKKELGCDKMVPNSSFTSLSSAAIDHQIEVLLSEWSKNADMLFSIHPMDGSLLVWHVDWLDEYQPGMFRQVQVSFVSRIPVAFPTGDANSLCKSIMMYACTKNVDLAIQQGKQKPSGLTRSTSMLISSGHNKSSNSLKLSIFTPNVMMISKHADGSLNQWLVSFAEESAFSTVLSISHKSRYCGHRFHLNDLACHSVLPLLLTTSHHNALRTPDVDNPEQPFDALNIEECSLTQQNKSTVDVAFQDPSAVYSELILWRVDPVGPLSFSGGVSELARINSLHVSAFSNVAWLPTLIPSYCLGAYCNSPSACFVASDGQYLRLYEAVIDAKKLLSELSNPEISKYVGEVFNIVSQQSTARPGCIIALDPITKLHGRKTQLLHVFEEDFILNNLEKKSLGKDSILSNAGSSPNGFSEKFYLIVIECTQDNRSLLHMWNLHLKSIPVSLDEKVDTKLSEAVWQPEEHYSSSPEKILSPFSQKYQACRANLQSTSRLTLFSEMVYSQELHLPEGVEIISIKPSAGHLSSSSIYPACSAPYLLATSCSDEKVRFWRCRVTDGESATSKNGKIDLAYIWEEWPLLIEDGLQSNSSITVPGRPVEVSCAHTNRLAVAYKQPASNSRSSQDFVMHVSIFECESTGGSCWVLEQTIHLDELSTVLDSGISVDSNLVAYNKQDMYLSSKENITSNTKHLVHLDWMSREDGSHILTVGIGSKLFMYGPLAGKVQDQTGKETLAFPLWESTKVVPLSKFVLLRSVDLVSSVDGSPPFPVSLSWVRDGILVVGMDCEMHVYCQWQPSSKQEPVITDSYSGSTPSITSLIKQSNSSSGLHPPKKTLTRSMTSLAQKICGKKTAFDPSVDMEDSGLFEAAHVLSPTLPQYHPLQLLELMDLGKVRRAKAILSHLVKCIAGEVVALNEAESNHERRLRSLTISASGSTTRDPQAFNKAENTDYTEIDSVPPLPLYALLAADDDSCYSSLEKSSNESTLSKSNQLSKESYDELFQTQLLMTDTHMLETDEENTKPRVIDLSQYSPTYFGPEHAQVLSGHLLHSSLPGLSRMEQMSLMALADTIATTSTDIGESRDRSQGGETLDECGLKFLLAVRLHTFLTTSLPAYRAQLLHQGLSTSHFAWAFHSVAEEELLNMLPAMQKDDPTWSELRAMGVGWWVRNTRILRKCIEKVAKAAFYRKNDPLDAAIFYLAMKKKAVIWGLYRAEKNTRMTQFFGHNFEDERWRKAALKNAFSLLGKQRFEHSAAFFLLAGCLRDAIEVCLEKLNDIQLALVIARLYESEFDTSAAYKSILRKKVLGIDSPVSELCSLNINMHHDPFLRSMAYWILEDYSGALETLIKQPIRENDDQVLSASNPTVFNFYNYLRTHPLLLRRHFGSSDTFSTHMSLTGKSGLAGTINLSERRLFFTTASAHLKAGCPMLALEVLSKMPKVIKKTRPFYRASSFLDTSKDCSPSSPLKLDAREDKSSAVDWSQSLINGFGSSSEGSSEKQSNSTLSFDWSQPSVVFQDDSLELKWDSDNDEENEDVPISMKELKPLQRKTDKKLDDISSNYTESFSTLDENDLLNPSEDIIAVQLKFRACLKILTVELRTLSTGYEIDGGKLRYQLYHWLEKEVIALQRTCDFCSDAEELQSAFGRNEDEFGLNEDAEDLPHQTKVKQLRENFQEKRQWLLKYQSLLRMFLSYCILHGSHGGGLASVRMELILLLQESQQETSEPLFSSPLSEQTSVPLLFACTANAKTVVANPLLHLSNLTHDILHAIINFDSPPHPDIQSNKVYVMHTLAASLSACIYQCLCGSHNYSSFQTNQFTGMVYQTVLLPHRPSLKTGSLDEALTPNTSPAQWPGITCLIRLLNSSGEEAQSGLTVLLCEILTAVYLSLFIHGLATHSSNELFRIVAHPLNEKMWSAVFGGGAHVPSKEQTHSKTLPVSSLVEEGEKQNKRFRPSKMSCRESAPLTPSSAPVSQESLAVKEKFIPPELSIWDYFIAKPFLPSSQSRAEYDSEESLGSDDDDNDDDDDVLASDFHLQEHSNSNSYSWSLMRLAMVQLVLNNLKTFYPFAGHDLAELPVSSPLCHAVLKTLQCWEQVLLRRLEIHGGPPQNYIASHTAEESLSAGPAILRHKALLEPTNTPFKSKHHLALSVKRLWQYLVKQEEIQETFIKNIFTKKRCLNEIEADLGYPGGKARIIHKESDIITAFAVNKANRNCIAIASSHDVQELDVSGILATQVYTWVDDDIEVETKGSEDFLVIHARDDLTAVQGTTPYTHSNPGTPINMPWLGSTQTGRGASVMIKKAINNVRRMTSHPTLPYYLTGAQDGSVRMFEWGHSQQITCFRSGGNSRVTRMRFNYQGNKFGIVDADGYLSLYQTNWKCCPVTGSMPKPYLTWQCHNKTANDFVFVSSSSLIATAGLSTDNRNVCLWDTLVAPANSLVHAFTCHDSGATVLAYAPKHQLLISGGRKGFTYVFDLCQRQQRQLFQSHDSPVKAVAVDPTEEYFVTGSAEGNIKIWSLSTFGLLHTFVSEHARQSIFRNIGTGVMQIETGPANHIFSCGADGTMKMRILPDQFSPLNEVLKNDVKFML
UniProt Q9NYL4: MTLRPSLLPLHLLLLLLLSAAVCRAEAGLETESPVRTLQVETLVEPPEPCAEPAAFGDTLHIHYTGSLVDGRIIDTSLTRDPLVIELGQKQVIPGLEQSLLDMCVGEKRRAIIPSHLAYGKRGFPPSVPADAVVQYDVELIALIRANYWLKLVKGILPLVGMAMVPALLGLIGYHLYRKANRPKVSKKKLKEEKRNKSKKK
UniProt O14683: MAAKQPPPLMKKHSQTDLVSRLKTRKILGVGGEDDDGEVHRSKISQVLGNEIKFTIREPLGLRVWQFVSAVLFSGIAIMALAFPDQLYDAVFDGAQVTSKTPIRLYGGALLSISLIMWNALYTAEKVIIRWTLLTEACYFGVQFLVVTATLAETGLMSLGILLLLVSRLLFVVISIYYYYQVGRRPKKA
UniProt P48382: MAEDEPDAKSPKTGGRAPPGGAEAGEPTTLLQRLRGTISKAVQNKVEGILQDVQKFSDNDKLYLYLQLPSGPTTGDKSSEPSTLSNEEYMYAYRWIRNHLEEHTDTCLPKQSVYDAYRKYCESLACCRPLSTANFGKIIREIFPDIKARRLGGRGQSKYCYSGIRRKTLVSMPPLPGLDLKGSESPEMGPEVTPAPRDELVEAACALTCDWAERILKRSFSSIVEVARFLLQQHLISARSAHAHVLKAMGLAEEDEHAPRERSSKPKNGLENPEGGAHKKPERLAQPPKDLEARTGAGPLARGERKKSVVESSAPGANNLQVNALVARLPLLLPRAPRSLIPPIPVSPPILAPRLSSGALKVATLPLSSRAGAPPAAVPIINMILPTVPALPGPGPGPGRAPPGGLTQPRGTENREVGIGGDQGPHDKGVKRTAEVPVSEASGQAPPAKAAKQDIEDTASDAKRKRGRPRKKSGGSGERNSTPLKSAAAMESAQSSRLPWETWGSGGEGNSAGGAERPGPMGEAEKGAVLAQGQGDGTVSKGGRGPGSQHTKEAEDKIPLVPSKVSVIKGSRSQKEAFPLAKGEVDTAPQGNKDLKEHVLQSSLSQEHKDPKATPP
UniProt Q15366, whole entry: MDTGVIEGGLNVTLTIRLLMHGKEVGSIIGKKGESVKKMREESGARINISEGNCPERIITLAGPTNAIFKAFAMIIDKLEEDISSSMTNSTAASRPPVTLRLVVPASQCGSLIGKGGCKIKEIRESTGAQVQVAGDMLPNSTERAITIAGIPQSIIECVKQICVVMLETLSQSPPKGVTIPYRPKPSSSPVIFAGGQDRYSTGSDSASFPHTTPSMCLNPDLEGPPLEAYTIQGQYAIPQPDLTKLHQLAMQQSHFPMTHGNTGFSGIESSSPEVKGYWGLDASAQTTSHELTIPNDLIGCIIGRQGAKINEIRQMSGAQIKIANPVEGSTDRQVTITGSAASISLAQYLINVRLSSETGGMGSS
UniProt P40855: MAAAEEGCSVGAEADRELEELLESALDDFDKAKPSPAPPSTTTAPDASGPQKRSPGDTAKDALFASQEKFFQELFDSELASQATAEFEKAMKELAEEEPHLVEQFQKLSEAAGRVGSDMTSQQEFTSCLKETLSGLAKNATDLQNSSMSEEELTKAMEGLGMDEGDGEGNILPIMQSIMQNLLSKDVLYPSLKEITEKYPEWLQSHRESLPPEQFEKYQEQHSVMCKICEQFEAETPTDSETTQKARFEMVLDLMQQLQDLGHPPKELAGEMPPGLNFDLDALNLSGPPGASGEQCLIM
UniProt Q92994: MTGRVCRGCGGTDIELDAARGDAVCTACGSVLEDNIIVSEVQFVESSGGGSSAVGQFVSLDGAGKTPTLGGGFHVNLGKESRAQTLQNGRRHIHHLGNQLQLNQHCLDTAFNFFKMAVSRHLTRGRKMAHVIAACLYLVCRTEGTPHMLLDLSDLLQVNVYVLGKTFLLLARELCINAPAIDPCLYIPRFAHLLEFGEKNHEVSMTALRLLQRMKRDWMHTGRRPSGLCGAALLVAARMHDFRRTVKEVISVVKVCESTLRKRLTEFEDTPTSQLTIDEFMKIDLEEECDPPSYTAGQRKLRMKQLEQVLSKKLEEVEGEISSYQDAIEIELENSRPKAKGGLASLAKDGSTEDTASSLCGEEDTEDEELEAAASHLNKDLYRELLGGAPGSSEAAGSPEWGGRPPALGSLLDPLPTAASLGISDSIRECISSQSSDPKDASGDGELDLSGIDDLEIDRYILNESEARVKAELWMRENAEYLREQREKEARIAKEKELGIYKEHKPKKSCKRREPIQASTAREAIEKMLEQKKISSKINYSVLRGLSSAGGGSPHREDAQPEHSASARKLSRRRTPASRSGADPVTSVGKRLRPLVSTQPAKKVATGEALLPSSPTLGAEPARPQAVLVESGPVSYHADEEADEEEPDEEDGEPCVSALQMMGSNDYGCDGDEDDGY
UniProt O76064: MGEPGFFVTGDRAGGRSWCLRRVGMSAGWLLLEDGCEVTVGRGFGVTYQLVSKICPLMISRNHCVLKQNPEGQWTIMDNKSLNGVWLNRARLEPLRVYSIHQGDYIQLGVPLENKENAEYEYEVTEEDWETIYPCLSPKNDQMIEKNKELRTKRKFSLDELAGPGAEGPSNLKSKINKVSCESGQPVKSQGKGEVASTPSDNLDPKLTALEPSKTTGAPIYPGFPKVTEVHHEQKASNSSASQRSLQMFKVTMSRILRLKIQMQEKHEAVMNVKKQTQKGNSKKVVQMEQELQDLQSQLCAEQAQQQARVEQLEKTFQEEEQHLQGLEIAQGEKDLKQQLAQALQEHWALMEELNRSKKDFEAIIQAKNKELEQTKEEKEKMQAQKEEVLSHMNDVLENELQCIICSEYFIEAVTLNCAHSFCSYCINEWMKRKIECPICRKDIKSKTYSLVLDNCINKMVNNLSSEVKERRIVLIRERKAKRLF
UniProt O43572: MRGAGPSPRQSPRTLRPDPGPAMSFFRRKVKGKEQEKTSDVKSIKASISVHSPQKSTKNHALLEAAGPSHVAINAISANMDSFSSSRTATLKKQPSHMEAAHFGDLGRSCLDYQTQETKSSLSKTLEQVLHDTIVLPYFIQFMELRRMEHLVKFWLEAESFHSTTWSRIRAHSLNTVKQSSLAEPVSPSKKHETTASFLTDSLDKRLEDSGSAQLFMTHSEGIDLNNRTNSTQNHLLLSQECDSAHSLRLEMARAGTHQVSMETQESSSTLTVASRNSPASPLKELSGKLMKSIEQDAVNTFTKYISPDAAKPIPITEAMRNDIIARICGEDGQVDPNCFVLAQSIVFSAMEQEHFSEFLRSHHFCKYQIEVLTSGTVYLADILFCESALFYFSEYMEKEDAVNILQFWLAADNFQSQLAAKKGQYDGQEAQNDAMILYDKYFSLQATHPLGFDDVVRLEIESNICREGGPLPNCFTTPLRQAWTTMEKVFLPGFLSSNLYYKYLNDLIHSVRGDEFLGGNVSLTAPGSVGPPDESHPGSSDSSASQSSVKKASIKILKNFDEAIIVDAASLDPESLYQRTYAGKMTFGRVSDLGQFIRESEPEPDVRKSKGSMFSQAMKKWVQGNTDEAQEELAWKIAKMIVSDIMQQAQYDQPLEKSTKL

What follows are targets tested with Nc1ncnc2c1ncn2[C@@H]1O[C@H](COP(=O)(O)OP(=O)(O)NP(=O)(O)O)[C@@H](O)[C@H]1O [adenylyl imidodiphosphate] (assay: NP40-soluble protein abundance relative to vehicle (solubility fold change) (ratio); higher = more soluble protein in presence of AMP-PNP). Details: concentration: 0.5mM.
Outline: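 Jurkat crude lysate (Dounce-homogenised) was treated with eight concentrations from 0.1 to 10 mM for 10 min at room temperature, then 3 min at 37 °C. It was solubilised with 0.8% NP40 and benzonase (60 min, 4 °C) and ultracentrifuged, and the supernatant was TMT-labelled for LC-MS/MS. Intensities were vsn-normalised, and the value is the fold change against the NP40-processed vehicle per replicate, from three independent experiments.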

| Target | NP40-soluble protein abundance |
| --- | --- |
| F5H0F9 and related entries (UniProt Q9UJX4) | 1.02 ± 0.074 |
| F5H269 and related entries (UniProt Q9Y485) | 1.01 ± 0.014 |
| F8W9X7 and related entries (UniProt Q567U6) | 0.976 ± 0.026 |
| F8VU90 and related entries (UniProt Q9NYL4) | 1.03 ± 0.053 |
| E9PIK4 and related entries (UniProt O14683) | 0.963 ± 0.019 |
| F8W689 and related entries (UniProt P48382) | 1.04 ± 0.11 |
| E9PGC0 and related entries (UniProt P20936) | 0.989 ± 0.015 |
| F8W7U0 and related entries (UniProt Q15811) | 0.998 ± 0.023 |
| F8VRH0 and related entries (UniProt Q15366) | 1.04 ± 0.069 |
| G3V3G9 (UniProt P40855) | 0.975 ± 0.04 |
| F8VS36 and related entries (UniProt Q92994) | 0.993 ± 0.015 |
| F6TB26 and related entries (UniProt Q9Y2W6) | 0.963 ± 0.037 |
| E7ESH4 and related entries (UniProt P10809) | 0.993 ± 0.071 |
| F8WEW6 and related entries (UniProt O76064) | 0.993 ± 0.012 |
| E9PPZ9 and related entries (UniProt O43292) | 1.02 ± 0.036 |
| F8WDV0 and related entries (UniProt Q9UI26) | 0.998 ± 0.083 |
| F5H610 and related entries (UniProt Q9Y478) | 0.971 ± 0.061 |
| E9PF19 and related entries (UniProt Q9Y4P3) | 1 ± 0.072 |
| E7EMD6 and related entries (UniProt O43572) | 0.987 ± 0.034 |

2 records drawn at random from those above, as already listed:

| Target | NP40-soluble protein abundance |
| --- | --- |
| F8W689 and related entries (UniProt P48382) | 1.04 ± 0.11 |
| F6TB26 and related entries (UniProt Q9Y2W6) | 0.963 ± 0.037 |
